Test results published in PMC6770856.
No constants are given. Whether binding was seen depends on the method and setting. Some results given as binding are weak or reduced against the parent protein; the word gives no strength.

By UniProt entry, the sequences of proteins in these tests, tags left out. Residues count along the entry.
UniProt Q6Z156, residues 242-388: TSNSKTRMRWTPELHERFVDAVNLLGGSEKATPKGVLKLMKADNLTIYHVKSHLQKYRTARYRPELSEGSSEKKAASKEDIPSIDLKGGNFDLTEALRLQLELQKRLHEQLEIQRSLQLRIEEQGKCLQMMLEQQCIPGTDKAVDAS

Tests used:
PIF1 (Arabidopsis) = target: T1, PIF1 (Arabidopsis) (UniProt Q8GZM7); assay: two-hybrid; Y2H assay in yeast; vectors, media and orientation not told in the text (Figures S2 and S4)
T1 sequence: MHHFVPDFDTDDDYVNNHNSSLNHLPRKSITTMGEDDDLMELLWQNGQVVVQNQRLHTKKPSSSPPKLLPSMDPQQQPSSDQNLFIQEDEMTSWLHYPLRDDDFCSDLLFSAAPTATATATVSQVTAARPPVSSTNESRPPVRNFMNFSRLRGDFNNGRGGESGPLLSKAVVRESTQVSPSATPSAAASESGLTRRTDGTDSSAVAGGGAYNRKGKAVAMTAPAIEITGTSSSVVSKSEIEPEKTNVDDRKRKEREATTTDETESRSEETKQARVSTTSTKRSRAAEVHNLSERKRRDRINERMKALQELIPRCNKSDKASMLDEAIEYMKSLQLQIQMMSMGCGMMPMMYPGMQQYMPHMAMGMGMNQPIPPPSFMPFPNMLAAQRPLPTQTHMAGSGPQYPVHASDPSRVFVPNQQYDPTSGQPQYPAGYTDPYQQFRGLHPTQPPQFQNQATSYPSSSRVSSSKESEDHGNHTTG

[1] = substrate: C terminus of OsPHR2 containing MYB-CC domains (242-388 aa, PHR-147) (rice) (UniProt Q6Z156); assay: as above

B1: HFR1 (protein, UniProt Q9FE22 1-292)
chain: MSNNQAFMELGWRNDVGSLAVKDQGMMSERARSDEDRLINGLKWGYGYFDHDQTDNYLQIVPEIHKEVENAKEDLLVVVPDEHSETDDHHHIKDFSERSDHRFYLRNKHENPKKRRIQVLSSDDESEEFTREVPSVTRKGSKRRRRDEKMSNKMRKLQQLVPNCHKTDKVSVLDKTIEYMKNLQLQLQMMSTVGVNPYFLPATLGFGMHNHMLTAMASAHGLNPANHMMPSPLIPALNWPLPPFTNISFPHSSSQSLFLTTSSPASSPQSLHGLVPYFPSFLDFSSHAMRRL
binding (PIF1 (Arabidopsis)): binds
binding [1]: no binding

B2: OsSPX4 (protein, UniProt Q10B79 1-320)
chain: MKFGKDFRSHLEETLPAWRDKYLAYKSLKKLIKNLPPDGDPPPVAAAAEVPAGDGDGDGGIALGNWFARVLDMELQKLNDFYIEREEWYVIRLQVLKERIERVKAKKNGAFTSKSEFTEEMLEIRKAFVIIHGEMILLQTYSSLNFAGLVKILKKYDKRTGGLLSLPFTQRARHQPFFTTEPLTRLVRECEANLELLFPIEAEVLESASSSAKLQPQNDDAASHDPASSVDVETSDVYRSTLAAMKAIQGLRKASSTYNPLSLARFFHGEDGEACSGAITSESDSYSDSQIEDAEDDDKEVQSREQNTAQNAAEGQPRDE
binding (PIF1 (Arabidopsis)): no binding
binding [1]: binds weakly
